In the supplement of paper PMC10849652:
Some of the results follow.

Amino acid sequences for entries named in this document (tags omitted). A change or cut given only in a name is not applied to a line headed by its entry.
UniProt P52948: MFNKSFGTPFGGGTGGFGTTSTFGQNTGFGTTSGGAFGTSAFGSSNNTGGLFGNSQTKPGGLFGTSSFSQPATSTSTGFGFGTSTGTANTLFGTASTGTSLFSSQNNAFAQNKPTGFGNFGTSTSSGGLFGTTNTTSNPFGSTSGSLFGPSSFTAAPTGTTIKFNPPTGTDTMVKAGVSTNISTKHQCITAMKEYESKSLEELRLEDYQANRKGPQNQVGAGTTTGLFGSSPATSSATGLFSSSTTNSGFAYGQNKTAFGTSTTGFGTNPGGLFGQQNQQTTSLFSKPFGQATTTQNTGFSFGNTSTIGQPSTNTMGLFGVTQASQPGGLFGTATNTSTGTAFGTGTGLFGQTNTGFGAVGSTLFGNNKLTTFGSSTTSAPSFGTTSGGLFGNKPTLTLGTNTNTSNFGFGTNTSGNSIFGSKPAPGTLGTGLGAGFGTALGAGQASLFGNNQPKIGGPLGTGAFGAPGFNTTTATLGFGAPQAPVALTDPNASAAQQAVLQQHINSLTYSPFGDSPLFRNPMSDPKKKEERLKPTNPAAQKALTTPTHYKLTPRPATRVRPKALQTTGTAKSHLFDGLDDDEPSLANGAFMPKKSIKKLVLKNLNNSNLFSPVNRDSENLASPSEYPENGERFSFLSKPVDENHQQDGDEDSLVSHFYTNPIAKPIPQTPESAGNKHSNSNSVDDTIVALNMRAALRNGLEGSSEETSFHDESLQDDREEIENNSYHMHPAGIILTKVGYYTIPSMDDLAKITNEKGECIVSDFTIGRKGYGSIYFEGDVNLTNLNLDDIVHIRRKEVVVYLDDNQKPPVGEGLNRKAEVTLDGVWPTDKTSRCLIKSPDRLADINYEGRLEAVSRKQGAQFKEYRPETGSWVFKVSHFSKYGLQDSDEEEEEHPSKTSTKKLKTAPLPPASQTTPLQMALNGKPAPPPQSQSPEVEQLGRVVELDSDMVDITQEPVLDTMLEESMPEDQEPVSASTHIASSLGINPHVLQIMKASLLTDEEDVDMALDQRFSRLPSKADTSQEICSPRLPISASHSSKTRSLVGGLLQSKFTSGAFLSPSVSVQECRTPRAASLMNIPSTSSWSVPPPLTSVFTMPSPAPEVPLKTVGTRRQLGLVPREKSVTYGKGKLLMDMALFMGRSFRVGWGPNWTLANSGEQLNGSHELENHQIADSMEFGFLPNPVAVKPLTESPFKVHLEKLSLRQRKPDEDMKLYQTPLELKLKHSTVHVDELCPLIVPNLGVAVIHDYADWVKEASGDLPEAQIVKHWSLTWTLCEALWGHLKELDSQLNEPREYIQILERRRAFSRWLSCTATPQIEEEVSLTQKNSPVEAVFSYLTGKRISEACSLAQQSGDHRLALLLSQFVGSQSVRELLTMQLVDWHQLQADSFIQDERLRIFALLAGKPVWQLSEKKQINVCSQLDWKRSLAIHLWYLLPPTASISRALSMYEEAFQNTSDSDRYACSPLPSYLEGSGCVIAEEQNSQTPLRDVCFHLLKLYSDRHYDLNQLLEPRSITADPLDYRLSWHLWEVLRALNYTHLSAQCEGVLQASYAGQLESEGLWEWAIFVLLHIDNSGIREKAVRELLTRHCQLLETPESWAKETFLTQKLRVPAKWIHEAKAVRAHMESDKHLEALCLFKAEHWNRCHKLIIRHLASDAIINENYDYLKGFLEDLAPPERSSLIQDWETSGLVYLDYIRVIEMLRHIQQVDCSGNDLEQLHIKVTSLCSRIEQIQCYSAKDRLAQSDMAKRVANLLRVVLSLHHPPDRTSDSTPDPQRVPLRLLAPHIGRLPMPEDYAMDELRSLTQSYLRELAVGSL
UniProt Q9BZF3: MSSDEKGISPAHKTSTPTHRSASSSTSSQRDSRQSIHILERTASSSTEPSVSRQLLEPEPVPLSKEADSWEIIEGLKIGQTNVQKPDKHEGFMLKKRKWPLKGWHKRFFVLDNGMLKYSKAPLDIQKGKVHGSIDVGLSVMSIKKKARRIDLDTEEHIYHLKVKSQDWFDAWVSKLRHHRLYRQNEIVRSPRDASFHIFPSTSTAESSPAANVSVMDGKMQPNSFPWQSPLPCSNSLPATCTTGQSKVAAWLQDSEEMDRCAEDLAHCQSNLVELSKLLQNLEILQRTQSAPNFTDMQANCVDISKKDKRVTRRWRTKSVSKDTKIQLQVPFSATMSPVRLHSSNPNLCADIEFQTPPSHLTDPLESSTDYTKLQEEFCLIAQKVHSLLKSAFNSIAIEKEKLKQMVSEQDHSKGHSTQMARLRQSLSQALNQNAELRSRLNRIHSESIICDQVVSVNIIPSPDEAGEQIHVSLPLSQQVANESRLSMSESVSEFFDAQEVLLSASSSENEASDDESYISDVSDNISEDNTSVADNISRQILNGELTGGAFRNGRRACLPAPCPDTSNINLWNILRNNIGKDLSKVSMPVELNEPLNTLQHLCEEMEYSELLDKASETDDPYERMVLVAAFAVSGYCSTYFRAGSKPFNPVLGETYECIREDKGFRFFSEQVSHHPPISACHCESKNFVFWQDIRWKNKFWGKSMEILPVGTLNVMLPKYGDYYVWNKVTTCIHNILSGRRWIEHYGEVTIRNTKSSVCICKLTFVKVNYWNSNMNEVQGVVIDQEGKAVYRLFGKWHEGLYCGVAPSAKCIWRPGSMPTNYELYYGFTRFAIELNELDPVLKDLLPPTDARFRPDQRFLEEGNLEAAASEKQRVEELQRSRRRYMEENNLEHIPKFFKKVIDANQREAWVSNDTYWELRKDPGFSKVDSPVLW
UniProt Q9NTK5, whole entry, looked up: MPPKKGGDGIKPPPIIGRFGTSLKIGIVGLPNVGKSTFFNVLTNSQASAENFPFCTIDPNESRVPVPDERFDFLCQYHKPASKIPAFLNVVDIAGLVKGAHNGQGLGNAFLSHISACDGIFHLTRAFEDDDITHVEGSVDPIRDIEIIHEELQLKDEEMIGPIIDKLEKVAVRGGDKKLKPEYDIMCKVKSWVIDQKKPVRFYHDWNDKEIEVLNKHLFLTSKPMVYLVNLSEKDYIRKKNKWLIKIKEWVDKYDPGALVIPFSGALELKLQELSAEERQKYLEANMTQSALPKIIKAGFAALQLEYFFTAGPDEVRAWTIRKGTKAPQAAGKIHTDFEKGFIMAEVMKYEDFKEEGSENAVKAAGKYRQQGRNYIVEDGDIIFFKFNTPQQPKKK
UniProt Q96RD7, whole entry, looked up: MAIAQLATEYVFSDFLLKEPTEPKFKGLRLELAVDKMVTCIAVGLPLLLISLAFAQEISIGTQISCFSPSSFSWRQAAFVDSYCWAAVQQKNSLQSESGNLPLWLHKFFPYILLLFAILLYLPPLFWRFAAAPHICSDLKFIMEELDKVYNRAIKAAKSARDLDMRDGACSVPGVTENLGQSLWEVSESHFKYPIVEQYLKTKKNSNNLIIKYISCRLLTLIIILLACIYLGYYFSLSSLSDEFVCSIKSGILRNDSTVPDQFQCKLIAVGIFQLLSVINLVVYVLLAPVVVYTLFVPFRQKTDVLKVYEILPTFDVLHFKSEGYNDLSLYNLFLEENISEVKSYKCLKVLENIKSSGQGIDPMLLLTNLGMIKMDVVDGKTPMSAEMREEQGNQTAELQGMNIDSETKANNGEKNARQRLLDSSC
UniProt O43482, whole entry, looked up: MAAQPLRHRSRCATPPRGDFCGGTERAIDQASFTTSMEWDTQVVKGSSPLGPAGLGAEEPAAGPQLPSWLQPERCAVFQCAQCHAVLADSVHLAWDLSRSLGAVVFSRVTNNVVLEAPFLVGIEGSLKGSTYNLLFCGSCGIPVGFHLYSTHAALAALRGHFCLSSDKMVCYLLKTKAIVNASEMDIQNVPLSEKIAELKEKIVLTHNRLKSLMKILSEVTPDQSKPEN
UniProt P55809: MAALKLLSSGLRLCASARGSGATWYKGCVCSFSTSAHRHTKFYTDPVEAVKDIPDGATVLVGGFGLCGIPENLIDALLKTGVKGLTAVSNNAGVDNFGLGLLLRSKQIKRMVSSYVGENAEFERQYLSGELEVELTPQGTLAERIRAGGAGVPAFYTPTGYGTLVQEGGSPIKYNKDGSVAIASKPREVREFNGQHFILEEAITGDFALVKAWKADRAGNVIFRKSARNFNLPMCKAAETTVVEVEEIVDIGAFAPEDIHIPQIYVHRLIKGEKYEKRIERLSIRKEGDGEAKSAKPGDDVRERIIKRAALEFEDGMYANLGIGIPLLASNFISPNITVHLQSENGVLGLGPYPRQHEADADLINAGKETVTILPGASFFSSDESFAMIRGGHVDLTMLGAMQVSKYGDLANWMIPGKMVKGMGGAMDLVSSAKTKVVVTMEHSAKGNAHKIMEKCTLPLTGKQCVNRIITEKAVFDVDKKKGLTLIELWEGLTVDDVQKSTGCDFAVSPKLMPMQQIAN
UniProt Q9BXB4: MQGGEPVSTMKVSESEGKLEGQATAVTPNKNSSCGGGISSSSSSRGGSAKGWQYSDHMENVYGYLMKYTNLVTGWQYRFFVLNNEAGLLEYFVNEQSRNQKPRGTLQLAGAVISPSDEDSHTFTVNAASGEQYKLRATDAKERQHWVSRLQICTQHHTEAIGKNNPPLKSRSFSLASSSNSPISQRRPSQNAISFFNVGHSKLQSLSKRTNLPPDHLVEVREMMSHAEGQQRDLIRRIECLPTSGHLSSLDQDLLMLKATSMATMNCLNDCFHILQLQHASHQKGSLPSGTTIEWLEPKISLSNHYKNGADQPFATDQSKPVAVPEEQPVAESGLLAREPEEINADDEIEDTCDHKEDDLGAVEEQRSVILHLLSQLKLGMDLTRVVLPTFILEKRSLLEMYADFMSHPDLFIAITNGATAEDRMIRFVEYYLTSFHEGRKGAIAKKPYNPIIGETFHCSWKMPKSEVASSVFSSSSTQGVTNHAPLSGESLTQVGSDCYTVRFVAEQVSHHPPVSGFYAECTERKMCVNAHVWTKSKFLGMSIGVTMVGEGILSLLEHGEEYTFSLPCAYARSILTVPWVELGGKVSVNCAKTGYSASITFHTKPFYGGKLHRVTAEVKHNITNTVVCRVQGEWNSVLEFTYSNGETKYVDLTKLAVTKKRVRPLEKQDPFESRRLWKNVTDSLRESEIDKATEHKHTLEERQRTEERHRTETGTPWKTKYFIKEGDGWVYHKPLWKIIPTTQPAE
UniProt P04181: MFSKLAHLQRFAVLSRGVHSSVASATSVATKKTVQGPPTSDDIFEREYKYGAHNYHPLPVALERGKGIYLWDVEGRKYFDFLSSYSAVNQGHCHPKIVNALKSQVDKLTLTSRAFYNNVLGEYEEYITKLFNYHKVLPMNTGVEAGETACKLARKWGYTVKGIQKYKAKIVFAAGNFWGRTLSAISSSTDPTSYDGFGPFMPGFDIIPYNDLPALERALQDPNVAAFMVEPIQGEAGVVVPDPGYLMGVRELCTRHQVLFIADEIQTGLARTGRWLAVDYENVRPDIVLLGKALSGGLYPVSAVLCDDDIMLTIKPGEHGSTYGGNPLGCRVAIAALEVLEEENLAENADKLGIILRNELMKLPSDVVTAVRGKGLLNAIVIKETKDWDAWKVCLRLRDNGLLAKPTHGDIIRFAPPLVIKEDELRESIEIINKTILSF
UniProt O60502: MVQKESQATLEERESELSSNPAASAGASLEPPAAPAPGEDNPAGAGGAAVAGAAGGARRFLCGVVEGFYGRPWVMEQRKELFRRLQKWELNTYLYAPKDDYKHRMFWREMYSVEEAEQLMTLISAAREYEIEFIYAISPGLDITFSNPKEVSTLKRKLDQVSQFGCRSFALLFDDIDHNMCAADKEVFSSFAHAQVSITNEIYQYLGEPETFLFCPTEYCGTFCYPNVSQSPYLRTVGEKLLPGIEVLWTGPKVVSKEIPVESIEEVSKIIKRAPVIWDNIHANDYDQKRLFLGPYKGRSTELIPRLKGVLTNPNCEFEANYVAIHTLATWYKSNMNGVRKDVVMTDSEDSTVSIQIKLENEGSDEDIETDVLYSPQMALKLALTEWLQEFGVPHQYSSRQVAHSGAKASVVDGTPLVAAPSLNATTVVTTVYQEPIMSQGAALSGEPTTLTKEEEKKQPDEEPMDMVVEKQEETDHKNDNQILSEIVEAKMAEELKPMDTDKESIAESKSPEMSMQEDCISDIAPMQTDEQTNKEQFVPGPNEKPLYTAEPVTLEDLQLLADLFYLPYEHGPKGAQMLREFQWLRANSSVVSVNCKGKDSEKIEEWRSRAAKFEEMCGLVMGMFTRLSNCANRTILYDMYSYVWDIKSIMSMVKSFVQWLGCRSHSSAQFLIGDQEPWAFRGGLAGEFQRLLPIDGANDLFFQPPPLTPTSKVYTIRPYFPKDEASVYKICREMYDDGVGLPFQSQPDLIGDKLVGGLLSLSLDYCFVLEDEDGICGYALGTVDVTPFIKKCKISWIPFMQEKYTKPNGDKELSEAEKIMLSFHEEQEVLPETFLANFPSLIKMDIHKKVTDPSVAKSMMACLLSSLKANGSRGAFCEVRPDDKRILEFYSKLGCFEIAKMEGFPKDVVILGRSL
UniProt O75459: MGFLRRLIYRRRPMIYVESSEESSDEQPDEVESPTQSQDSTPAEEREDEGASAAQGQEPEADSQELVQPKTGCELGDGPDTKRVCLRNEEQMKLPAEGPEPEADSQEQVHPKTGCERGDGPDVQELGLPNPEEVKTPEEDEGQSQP

Each target was assayed with CC(=O)c1cnc2ccc(-c3cc(Cl)c(O)c(Cl)c3)nc2c1N[C@H]1CC[C@H](CN(C)C)CC1 (assay: log2 fold change, soluble protein after heating vs DMSO (PISA); higher = thermal stabilisation; K562 lysate, 10 uM; active = over 0.2 and 3.5 SD of the protein, either way, in both replicates (recomputed)).
Summary of the method: (§1)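 A 30 min treatment with 10 μM compound was applied to crude K562 extract at 1 mg/mL protein in PBS pH 7.4 with 1 mM MgCl2. Heating for 3 min spanned 48°C-58°C, after which aliquots were pooled, adjusted to 0.5% NP-40 at 4°C and spun at 21,000xg for 90 min. TMTpro 16plex LC-MS/MS of the supernatant, with channel sums equalised, gave values recorded as log-two fold change in thermal stability against solvent controls, from duplicates.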

Target	log2 fold change
OTUD4 (UniProt Q01804)	inactive: 0.042
PACC1 (UniProt Q9H813)	inactive: 0.068
NUP98 (UniProt P52948)	inactive: 0.047
OCRL (UniProt Q01968)	inactive: -0.038
OXR1 (UniProt Q8N573)	inactive: -0.013
PARG (UniProt Q86W56)	inactive: 0.01
PARD3 (UniProt Q8TEW0)	inactive: 0.134
OSBPL6 isoform 5 (UniProt Q9BZF3)	inactive: -0.031
OLA1 (UniProt Q9NTK5)	inactive: -0.002
P4HA1 (UniProt P13674)	inactive: -0.009
PANX1 (UniProt Q96RD7)	inactive: 0
OPLAH (UniProt O14841)	inactive: -0.007
OIP5 (UniProt O43482)	inactive: 0.02
OXCT1 (UniProt P55809)	inactive: -0.049
OSBPL11 (UniProt Q9BXB4)	inactive: 0.056
NUP214 (UniProt P35658)	inactive: 0.004
PARL (UniProt Q9H300)	inactive: 0.006
OAT (UniProt P04181)	inactive: 0.013
OGA (UniProt O60502)	inactive: 0.001
OCIAD1 (UniProt Q9NX40)	inactive: 0

What follows are targets tested with CC(C)(C)Cn1c(N)nc2ccc(-c3[nH]c(C(C)(C)C)nc3-c3ccc(F)cc3)nc21 [ralimetinib] in the same assay as above.
Summary of the method: as §1

Target	log2 fold change
OBI1 (UniProt Q5W0B1)	inactive: 0.016
OBSL1 (UniProt O75147)	inactive: 0
OGDH (UniProt Q02218)	inactive: -0.016
PAAF1 (UniProt Q9BRP4)	inactive: 0.004
OS9 (UniProt Q13438)	inactive: 0.026
PARK7 (UniProt Q99497)	inactive: -0.026
PAGE1 (UniProt O75459)	inactive: -0.036
OSBPL3 isoform 2 (UniProt Q9H4L5)	inactive: 0.019
PAICS (UniProt E9PBS1)	inactive: 0.178
OSTF1 (UniProt Q92882)	inactive: -0.007
PAIP1 (UniProt Q9H074)	inactive: -0.003
OGFOD1 (UniProt Q8N543)	inactive: -0.008
P4HB (UniProt P07237)	inactive: -0.009
OGFR (UniProt Q9NZT2)	inactive: 0.007
OTUD4 (UniProt Q01804)	inactive: 0.014
PACC1 (UniProt Q9H813)	inactive: -0.081
NUP98 (UniProt P52948)	inactive: 0.047

Target	log2 fold change
OCRL (UniProt Q01968)	inactive: -0.016
OXR1 (UniProt Q8N573)	inactive: -0.012
PARG (UniProt Q86W56)	inactive: 0.017
PARD3 (UniProt Q8TEW0)	inactive: -0.017
OSBPL6 isoform 5 (UniProt Q9BZF3)	inactive: 0.23
OLA1 (UniProt Q9NTK5)	inactive: 0.015
P4HA1 (UniProt P13674)	inactive: 0.008
PANX1 (UniProt Q96RD7)	inactive: 0.025
OPLAH (UniProt O14841)	inactive: -0.002
OIP5 (UniProt O43482)	inactive: -0.021
OXCT1 (UniProt P55809)	inactive: 0.002
OSBPL11 (UniProt Q9BXB4)	inactive: 0.07
NUP214 (UniProt P35658)	inactive: -0.003
PARL (UniProt Q9H300)	inactive: 0.019
OAT (UniProt P04181)	inactive: 0.009
OGA (UniProt O60502)	inactive: 0.022
OCIAD1 (UniProt Q9NX40)	inactive: 0.005

These targets were tested with CC(C)(O)CC(=O)NCCn1ccc2ncnc(Nc3ccc(Oc4cccc(C(F)(F)F)c4)c(Cl)c3)c21 in the same assay as above.
Summary of the method: as §1

Target	log2 fold change
OBI1 (UniProt Q5W0B1)	inactive: -0.071
OBSL1 (UniProt O75147)	inactive: -0.044
OGDH (UniProt Q02218)	inactive: -0.025
PAAF1 (UniProt Q9BRP4)	inactive: -0.007
OS9 (UniProt Q13438)	inactive: -0.017
PARK7 (UniProt Q99497)	inactive: -0.02
PAGE1 (UniProt O75459)	inactive: 0.01
OSBPL3 isoform 2 (UniProt Q9H4L5)	inactive: 0.004
PAICS (UniProt E9PBS1)	inactive: -0.003
OSTF1 (UniProt Q92882)	inactive: -0.024
PAIP1 (UniProt Q9H074)	inactive: 0.012
OGFOD1 (UniProt Q8N543)	inactive: -0.049
P4HB (UniProt P07237)	inactive: 0.034
OGFR (UniProt Q9NZT2)	inactive: -0.011
OTUD4 (UniProt Q01804)	inactive: -0.025
PACC1 (UniProt Q9H813)	inactive: -0.081
NUP98 (UniProt P52948)	inactive: 0.022

Target	log2 fold change
OCRL (UniProt Q01968)	inactive: 0.016
OXR1 (UniProt Q8N573)	inactive: -0.026
PARG (UniProt Q86W56)	inactive: -0.011
PARD3 (UniProt Q8TEW0)	inactive: -0.011
OSBPL6 isoform 5 (UniProt Q9BZF3)	inactive: -0.042
OLA1 (UniProt Q9NTK5)	inactive: 0.03
P4HA1 (UniProt P13674)	inactive: 0.023
PANX1 (UniProt Q96RD7)	inactive: -0.015
OPLAH (UniProt O14841)	inactive: 0.034
OIP5 (UniProt O43482)	inactive: -0.026
OXCT1 (UniProt P55809)	inactive: -0.011
OSBPL11 (UniProt Q9BXB4)	inactive: 0.003
NUP214 (UniProt P35658)	inactive: -0.016
PARL (UniProt Q9H300)	inactive: -0.051
OAT (UniProt P04181)	inactive: 0.002
OGA (UniProt O60502)	inactive: -0.028
OCIAD1 (UniProt Q9NX40)	inactive: -0.026
